Test results reported in patent publication US9517222B2, “Method for the treatment of senile dementia of the Alzheimer's type” (Phenomenome Discoveries Inc., priority 2007, dated 2016).
Some values come without a unit; they compare only within their column.

Experiments:
[1] = Serum ethanolamine phospholipid ratios to PtdEt 16:0/18:0 (M01) in human cohorts
[2] = Serum ethanolamine phospholipid levels in human cohorts (dementia severity, post-mortem pathology, age) by flow-injection MS/MS
[3] = serum, females, post mortem SDAT
[4] = serum, females, post mortem control

## CC/C=C\C/C=C\C/C=C\C/C=C\C/C=C\C/C=C\CCC(=O)OC(COCCCCCCCCCCCCCCCC)COP(=O)(O)OCCN (centres unmarked) [Metabolite M09, Plasmanyl 16:0/22:6]
[1]; AD, All to CN, Male
  Ratio of ethanolamine phospholipid ratios to M01 between cohorts: 0.645
[1]; ADAS 5-19 to CN, Male
  Ratio of ethanolamine phospholipid ratios to M01 between cohorts: 0.713
[1]; ADAS 20-39 to CN, Male
  Ratio of ethanolamine phospholipid ratios to M01 between cohorts: 0.654
[1]; ADAS 40-70 to CN, Male
  Ratio of ethanolamine phospholipid ratios to M01 between cohorts: 0.476
[1]; Cognitive Normal, Male, serum
  Average serum ethanolamine phospholipid ratio to M01, Mean: 0.195
[1]; SDAT, ADAS 5-19, Male, serum
  Average serum ethanolamine phospholipid ratio to M01, Mean: 0.139
[1]; SDAT, ADAS 20-39, Male, serum
  Average serum ethanolamine phospholipid ratio to M01, Mean: 0.127
[1]; SDAT, ADAS 40-70, Male, serum
  Average serum ethanolamine phospholipid ratio to M01, Mean: 0.093
[1]; SDAT_all, Male, serum
  Average serum ethanolamine phospholipid ratio to M01, Mean: 0.126
[1]; human serum, females aged 30-39
  Ethanolamine Phospholipid Ratio to M01, Mean, Age Ctl, 30-39, Female: 0.204
[1]; human serum, females aged 40-49
  Ethanolamine Phospholipid Ratio to M01, Mean, Age Ctl, 40-49, Female: 0.194
[1]; human serum, females aged 50-59
  Ethanolamine Phospholipid Ratio to M01, Mean, Age Ctl, 50-59, Female: 0.197
[1]; human serum, females aged 50-59 vs. females aged 40-49
  Ratio of Ethanolamine Phospholipid Ratio to M01, 50-59 vs. 40-49, Female: 1.016
[1]; human serum, females aged 60-69
  Ethanolamine Phospholipid Ratio to M01, Mean, Age Ctl, 60-69, Female: 0.139
[1]; human serum, females aged 60-69 vs. females aged 40-49
  Ratio of Ethanolamine Phospholipid Ratio to M01, 60-69 vs. 40-49, Female: 0.717
[1]; human serum, females aged 70+
  Ethanolamine Phospholipid Ratio to M01, Mean, Age Ctl, 70+_Female: 0.163
[1]; human serum, females aged 70+ vs. females aged 40-49
  Ratio of Ethanolamine Phospholipid Ratio to M01, 70+ vs. 40-49, Female: 0.841
[1]; human serum, males aged 50-59 vs. males aged 40-49
  Ratio of Ethanolamine Phospholipid Ratio to M01, 50-59 vs. 40-49, Male: 1.404
[1]; human serum, males aged 60-69 vs. males aged 40-49
  Ratio of Ethanolamine Phospholipid Ratio to M01, 60-69 vs. 40-49, Male: 1.243
[1]; human serum, males aged 70+ vs. males aged 40-49
  Ratio of Ethanolamine Phospholipid Ratio to M01, 70+ vs. 40-49, Male: 1.391
[1]; serum, females, ADAS 5-19 vs cognitive normal
  Ratio of ethanolamine phospholipid ratio to M01, ADAS 5-19 to CN, Female: 0.837
[1]; serum, females, ADAS 20-39 vs ADAS 5-19
  Ratio of ethanolamine phospholipid ratio to M01, ADAS 20-39 to 5-19, Female: 0.884
[1]; serum, females, ADAS 20-39 vs cognitive normal
  Ratio of ethanolamine phospholipid ratio to M01, ADAS 20-39 to CN, Female: 0.740
[1]; serum, females, ADAS 40-70 vs ADAS 5-19
  Ratio of ethanolamine phospholipid ratio to M01, ADAS 40-70 to 5-19, Female: 0.738
[1]; serum, females, ADAS 40-70 vs ADAS 20-39
  Ratio of ethanolamine phospholipid ratio to M01, ADAS 40-70 to 20-39, Female: 0.835
[1]; serum, females, ADAS 40-70 vs cognitive normal
  Ratio of ethanolamine phospholipid ratio to M01, ADAS 40-70 to CN, Female: 0.618
[1]; serum, females, SDAT ADAS 5-19
  Ethanolamine phospholipid ratio to M01, Mean, SDAT, ADAS 5-19, Female: 0.140
[1]; serum, females, SDAT ADAS 20-39
  Ethanolamine phospholipid ratio to M01, Mean, SDAT, ADAS 20-39, Female: 0.123
[1]; serum, females, SDAT ADAS 40-70
  Ethanolamine phospholipid ratio to M01, Mean, SDAT, ADAS 40-70, Female: 0.103
[1]; serum, females, all AD vs cognitive normal
  Ratio of ethanolamine phospholipid ratio to M01, AD, All to CN, Female: 0.724
[1]; serum, females, all SDAT
  Ethanolamine phospholipid ratio to M01, Mean, SDAT_all Female: 0.121
[1]; serum, females, autopsy AD vs post mortem control
  Ratio of ethanolamine phospholipid ratio to M01, Autopsy AD vs. Control, Female: 0.725
[1]; serum, females, cognitive normal
  Ethanolamine phospholipid ratio to M01, Mean, Cognitive Normal, Female: 0.167
[1]; [3]
  Ethanolamine phospholipid ratio to M01, Mean, Post Mortem SDAT Female: 0.024
[1]; [4]
  Ethanolamine phospholipid ratio to M01, Mean, Post Mortem Ctl, Female: 0.033
[1]; serum, males, SDAT ADAS 20-39 vs ADAS 5-19
  Ratio of ethanolamine phospholipid ratio to M01, ADAS 20-39 to 5-19, Male: 0.917
[1]; serum, males, SDAT ADAS 40-70 vs ADAS 5-19
  Ratio of ethanolamine phospholipid ratio to M01, ADAS 40-70 to 5-19, Male: 0.668
[1]; serum, males, SDAT ADAS 40-70 vs ADAS 20-39
  Ratio of ethanolamine phospholipid ratio to M01, ADAS 40-70 to 20-39, Male: 0.728
[1]; serum, males, age control 30-39
  Ethanolamine phospholipid ratio to M01, Mean, Age Ctl, 30-39, Male: 0.161
[1]; serum, males, age control 40-49
  Ethanolamine phospholipid ratio to M01, Mean, Age Ctl, 40-49, Male: 0.124
[1]; serum, males, age control 50-59
  Ethanolamine phospholipid ratio to M01, Mean, Age Ctl, 50-59, Male: 0.173
[1]; serum, males, age control 60-69
  Ethanolamine phospholipid ratio to M01, Mean, Age Ctl, 60-69, Male: 0.154
[1]; serum, males, age control 70+
  Ethanolamine phospholipid ratio to M01, Mean, Age Ctl, 70+_Male: 0.172
[1]; serum, males, post mortem SDAT
  Ethanolamine phospholipid ratio to M01, Mean, Post Mortem SDAT Male: 0.018
[1]; serum, males, post mortem SDAT vs post mortem control
  Ratio of ethanolamine phospholipid ratio to M01, SDAT vs Control (post mortem, males): 0.341
[1]; serum, males, post mortem control
  Ethanolamine phospholipid ratio to M01, Mean, Post Mortem Ctl, Male: 0.052
[2]; AD, All to CN, Male
  Ratio of serum levels: 0.658
[2]; ADAS 5-19 to CN, Male
  Ratio of serum levels: 0.731
[2]; ADAS 20-39 to 5-19, Male
  Ratio of serum levels: 0.895
[2]; ADAS 20-39 to CN, Male
  Ratio of serum levels: 0.654
[2]; ADAS 40-70 to 5-19, Male
  Ratio of serum levels: 0.646
[2]; ADAS 40-70 to 20-39, Male
  Ratio of serum levels: 0.721
[2]; ADAS 40-70 to CN, Male
  Ratio of serum levels: 0.472
[2]; Cognitive Normal, Female
  Serum level, Mean: 0.019
[2]; Cognitive Normal, Male
  Average serum level, Mean: 0.022
[2]; Post Mortem Ctl, Male
  Serum level, Mean: 0.006
[2]; Post Mortem SDAT Male
  Serum level, Mean: 0.003
[2]; Post mortem SDAT vs Control, Male
  Ratio of serum levels: 0.269
[2]; SDAT, ADAS 5-19, Female
  Serum level, Mean: 0.015
[2]; SDAT, ADAS 5-19, Male
  Average serum level, Mean: 0.016
[2]; SDAT, ADAS 20-39, Female
  Serum level, Mean: 0.014
[2]; SDAT, ADAS 20-39, Male
  Average serum level, Mean: 0.015
[2]; SDAT, ADAS 40-70, Female
  Serum level, Mean: 0.012
[2]; SDAT, ADAS 40-70, Male
  Average serum level, Mean: 0.011
[2]; SDAT_all, Female
  Serum level, Mean: 0.013
[2]; SDAT_all, Male
  Average serum level, Mean: 0.015
[2]; serum level ratio, females, ADAS 5-19 vs CN
  Ratio, ADAS 5-19 to CN, Female: 0.777
[2]; serum level ratio, females, ADAS 20-39 vs ADAS 5-19
  Ratio, ADAS 20-39 to 5-19, Female: 0.903
[2]; serum level ratio, females, ADAS 20-39 vs CN
  Ratio, ADAS 20-39 to CN, Female: 0.702
[2]; serum level ratio, females, ADAS 40-70 vs ADAS 5-19
  Ratio, ADAS 40-70 to 5-19, Female: 0.802
[2]; serum level ratio, females, ADAS 40-70 vs ADAS 20-39
  Ratio, ADAS 40-70 to 20-39, Female: 0.889
[2]; serum level ratio, females, ADAS 40-70 vs CN
  Ratio, ADAS 40-70 to CN, Female: 0.624
[2]; serum level ratio, females, age 50-59 vs 40-49
  Ratio, 50-59 vs. 40-49, Female: 0.934
[2]; serum level ratio, females, age 60-69 vs 40-49
  Ratio, 60-69 vs. 40-49, Female: 0.784
[2]; serum level ratio, females, age 70+ vs 40-49
  Ratio, 70+ vs. 40-49, Female: 0.912
[2]; serum level ratio, females, all AD vs cognitively normal
  Ratio, AD, All to CN, Female: 0.696
[2]; serum level ratio, females, autopsy AD vs control
  Ratio, Autopsy AD vs. Control, Female: 0.566
[2]; serum level ratio, males, age 50-59 vs 40-49
  Ratio, 50-59 vs. 40-49, Male: 1.443
[2]; serum level ratio, males, age 60-69 vs 40-49
  Ratio, 60-69 vs. 40-49, Male: 1.473
[2]; serum level ratio, males, age 70+ vs 40-49
  Ratio, 70+ vs. 40-49, Male: 1.701
[2]; serum, females, age 30-39
  Mean serum level, Age Ctl, 30-39, Female: 0.021
[2]; serum, females, age 40-49
  Mean serum level, Age Ctl, 40-49, Female: 0.021
[2]; serum, females, age 50-59
  Mean serum level, Age Ctl, 50-59, Female: 0.020
[2]; serum, females, age 60-69
  Mean serum level, Age Ctl, 60-69, Female: 0.017
[2]; serum, females, age 70+
  Mean serum level, Age Ctl, 70+, Female: 0.019
[2]; [3]
  Mean serum level, Post Mortem SDAT, Female: 0.002
[2]; [4]
  Mean serum level, Post Mortem Ctl, Female: 0.005
[2]; serum, males, age 30-39
  Mean serum level, Age Ctl, 30-39, Male: 0.019
[2]; serum, males, age 40-49
  Mean serum level, Age Ctl, 40-49, Male: 0.013
[2]; serum, males, age 50-59
  Mean serum level, Age Ctl, 50-59, Male: 0.019
[2]; serum, males, age 60-69
  Mean serum level, Age Ctl, 60-69, Male: 0.019
[2]; serum, males, age 70+
  Mean serum level, Age Ctl, 70+, Male: 0.022
